From the supplement of paper PMC10849652
Some of the results follow.

The chains behind the UniProt entries cited, without tags or fusion partners. Where a name states a change or a piece, a line headed by the entry shows the natural chain unless it says otherwise.
UniProt Q9NYA1, whole entry, looked up: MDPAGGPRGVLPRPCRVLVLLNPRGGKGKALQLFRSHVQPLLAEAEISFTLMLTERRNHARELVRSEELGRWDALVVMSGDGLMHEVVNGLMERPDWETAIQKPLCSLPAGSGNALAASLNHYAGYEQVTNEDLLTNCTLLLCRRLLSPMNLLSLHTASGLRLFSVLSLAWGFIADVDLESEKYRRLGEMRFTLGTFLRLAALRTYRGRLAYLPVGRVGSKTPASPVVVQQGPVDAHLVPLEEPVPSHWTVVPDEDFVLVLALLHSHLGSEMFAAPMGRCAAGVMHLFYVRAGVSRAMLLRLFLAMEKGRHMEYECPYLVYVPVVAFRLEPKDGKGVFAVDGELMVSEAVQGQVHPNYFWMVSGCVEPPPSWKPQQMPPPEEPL
UniProt P42229: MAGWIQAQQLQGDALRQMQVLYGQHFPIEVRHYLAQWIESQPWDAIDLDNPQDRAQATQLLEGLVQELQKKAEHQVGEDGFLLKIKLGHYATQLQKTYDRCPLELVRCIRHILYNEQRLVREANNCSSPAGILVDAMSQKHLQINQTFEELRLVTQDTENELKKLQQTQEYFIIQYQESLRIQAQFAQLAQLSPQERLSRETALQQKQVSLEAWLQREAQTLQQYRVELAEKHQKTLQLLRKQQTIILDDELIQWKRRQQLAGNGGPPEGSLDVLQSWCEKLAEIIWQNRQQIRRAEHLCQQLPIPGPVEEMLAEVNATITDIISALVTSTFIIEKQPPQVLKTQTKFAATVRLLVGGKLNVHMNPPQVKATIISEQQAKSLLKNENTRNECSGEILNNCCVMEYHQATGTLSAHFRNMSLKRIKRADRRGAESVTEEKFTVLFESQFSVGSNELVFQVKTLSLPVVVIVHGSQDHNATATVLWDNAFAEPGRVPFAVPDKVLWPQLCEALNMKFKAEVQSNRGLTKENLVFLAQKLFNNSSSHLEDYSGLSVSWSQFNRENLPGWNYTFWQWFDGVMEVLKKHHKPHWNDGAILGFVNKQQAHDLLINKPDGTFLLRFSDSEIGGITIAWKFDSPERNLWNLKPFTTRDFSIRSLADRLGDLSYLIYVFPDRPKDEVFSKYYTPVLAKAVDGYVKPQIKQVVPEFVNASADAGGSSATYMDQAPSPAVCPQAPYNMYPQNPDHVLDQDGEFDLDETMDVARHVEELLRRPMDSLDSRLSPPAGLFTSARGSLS
UniProt O95630, whole entry, looked up: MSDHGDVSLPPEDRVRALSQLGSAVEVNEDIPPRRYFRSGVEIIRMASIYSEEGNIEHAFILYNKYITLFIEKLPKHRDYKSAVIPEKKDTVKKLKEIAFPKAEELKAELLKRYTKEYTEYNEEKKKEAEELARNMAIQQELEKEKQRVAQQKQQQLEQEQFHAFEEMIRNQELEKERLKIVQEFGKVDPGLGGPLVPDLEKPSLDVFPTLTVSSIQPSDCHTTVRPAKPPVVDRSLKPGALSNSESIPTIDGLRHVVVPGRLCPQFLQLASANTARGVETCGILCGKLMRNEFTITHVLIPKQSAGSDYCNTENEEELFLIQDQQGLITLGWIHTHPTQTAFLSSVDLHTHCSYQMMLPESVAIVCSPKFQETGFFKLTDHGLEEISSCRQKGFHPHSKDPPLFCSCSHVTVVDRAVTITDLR
UniProt Q7Z699: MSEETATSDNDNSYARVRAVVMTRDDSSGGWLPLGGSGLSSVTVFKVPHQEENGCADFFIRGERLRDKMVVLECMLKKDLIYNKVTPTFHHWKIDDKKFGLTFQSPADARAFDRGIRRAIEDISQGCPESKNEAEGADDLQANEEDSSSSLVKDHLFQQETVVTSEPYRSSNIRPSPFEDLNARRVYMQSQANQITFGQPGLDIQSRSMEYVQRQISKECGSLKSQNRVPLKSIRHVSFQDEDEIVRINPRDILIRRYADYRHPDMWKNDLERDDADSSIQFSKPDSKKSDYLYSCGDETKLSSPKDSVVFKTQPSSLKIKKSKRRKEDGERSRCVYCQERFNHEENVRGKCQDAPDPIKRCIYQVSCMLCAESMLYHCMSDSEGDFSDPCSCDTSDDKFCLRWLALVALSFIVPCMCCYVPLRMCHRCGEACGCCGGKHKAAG
UniProt Q9HD15: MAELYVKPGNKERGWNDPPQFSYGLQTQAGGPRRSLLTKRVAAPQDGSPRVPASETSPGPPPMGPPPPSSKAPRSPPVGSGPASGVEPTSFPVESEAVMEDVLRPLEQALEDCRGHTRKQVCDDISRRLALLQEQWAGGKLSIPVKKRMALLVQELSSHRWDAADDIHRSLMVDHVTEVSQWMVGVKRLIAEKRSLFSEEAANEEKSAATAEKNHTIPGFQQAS
UniProt P51692: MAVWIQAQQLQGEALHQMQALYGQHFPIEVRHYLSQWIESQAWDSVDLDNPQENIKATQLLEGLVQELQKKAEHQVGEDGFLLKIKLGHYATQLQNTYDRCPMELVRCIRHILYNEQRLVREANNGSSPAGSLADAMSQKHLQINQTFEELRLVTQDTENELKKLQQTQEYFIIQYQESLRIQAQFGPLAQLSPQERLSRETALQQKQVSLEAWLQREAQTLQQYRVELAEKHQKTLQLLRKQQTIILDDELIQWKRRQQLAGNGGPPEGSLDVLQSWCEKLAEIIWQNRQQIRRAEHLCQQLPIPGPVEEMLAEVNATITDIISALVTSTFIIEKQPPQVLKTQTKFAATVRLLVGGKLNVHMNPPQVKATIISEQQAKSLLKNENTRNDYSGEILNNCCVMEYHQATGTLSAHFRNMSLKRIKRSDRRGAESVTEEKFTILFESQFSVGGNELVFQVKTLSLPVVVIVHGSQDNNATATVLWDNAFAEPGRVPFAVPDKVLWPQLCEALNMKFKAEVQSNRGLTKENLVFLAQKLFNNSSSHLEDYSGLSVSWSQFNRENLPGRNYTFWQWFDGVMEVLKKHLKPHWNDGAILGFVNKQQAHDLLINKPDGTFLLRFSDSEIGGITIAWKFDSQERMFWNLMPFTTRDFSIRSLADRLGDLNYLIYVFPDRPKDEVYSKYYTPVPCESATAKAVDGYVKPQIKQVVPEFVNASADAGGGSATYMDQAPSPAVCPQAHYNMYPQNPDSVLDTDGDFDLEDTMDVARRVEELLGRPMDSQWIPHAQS
UniProt P19623: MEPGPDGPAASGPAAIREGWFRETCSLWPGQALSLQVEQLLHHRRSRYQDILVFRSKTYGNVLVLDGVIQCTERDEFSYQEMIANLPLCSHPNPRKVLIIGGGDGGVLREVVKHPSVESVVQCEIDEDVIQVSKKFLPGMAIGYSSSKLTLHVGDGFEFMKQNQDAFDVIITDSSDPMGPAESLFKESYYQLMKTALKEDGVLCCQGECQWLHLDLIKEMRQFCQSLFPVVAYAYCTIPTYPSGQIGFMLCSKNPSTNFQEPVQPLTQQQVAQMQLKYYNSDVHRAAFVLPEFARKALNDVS
UniProt P10124: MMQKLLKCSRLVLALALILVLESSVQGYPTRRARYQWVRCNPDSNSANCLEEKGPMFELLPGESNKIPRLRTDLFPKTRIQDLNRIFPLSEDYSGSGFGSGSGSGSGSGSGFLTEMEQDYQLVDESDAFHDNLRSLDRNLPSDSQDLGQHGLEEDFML
UniProt Q8N3U4: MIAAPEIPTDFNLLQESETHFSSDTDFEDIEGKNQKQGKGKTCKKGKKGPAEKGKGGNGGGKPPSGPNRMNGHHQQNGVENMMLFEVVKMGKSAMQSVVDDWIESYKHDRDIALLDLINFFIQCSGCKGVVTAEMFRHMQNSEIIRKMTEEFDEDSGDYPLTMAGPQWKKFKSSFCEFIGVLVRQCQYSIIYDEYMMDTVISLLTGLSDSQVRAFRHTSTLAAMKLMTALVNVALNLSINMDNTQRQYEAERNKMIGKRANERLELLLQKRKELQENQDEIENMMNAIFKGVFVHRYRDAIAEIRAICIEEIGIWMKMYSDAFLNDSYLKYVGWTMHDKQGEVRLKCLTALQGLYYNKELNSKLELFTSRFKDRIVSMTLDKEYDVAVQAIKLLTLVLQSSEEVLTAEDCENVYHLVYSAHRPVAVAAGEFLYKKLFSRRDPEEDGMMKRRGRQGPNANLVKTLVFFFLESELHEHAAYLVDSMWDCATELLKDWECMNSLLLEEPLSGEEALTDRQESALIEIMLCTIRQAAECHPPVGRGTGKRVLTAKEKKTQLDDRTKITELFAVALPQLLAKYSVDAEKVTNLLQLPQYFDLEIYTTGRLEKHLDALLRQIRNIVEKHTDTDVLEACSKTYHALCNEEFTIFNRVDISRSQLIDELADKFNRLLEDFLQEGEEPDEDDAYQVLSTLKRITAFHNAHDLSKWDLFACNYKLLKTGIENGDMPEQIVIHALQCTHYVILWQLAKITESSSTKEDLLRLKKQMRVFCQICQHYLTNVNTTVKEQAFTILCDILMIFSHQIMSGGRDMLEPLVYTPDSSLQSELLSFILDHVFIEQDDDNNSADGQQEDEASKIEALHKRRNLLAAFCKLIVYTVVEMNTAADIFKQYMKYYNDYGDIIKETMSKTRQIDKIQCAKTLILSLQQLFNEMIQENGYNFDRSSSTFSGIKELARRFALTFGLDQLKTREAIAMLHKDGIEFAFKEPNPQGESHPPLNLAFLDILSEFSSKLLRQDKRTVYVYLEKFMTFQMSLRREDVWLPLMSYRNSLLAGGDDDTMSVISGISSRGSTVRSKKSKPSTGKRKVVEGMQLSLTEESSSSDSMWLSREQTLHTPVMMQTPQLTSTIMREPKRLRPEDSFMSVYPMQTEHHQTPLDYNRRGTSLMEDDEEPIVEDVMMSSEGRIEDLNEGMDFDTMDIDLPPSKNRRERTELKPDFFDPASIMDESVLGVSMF
UniProt Q8WVM7: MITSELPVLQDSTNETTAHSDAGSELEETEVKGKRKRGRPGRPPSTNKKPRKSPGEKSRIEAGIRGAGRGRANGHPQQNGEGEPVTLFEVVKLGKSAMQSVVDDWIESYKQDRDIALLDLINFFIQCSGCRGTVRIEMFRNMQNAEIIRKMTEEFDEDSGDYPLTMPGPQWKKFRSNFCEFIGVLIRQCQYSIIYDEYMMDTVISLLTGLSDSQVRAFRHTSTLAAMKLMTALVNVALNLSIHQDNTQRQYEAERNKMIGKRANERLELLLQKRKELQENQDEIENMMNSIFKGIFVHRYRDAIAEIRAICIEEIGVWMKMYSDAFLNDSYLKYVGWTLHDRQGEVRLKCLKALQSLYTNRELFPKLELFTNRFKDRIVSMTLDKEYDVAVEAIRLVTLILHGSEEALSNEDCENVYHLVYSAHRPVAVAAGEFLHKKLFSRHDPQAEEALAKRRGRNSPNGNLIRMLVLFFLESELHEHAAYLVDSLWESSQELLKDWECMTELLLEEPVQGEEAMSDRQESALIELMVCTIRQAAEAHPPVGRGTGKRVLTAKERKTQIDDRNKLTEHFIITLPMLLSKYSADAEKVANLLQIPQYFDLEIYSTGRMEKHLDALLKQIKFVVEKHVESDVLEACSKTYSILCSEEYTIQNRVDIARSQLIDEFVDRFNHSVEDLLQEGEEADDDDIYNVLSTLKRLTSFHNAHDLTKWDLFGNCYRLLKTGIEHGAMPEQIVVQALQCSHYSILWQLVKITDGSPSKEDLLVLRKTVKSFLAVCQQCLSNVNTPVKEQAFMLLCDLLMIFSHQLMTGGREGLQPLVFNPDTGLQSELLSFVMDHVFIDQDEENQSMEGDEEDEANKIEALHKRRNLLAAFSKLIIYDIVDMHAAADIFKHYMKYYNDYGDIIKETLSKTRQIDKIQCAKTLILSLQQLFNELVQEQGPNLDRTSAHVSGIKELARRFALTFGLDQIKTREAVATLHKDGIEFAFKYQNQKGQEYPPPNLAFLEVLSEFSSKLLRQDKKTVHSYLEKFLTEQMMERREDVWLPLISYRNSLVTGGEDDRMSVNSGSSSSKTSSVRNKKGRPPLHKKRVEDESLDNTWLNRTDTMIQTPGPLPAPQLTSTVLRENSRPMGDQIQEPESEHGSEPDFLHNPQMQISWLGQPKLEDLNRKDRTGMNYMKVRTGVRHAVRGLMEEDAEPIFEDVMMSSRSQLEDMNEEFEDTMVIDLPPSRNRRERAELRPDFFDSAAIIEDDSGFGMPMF
UniProt O95793: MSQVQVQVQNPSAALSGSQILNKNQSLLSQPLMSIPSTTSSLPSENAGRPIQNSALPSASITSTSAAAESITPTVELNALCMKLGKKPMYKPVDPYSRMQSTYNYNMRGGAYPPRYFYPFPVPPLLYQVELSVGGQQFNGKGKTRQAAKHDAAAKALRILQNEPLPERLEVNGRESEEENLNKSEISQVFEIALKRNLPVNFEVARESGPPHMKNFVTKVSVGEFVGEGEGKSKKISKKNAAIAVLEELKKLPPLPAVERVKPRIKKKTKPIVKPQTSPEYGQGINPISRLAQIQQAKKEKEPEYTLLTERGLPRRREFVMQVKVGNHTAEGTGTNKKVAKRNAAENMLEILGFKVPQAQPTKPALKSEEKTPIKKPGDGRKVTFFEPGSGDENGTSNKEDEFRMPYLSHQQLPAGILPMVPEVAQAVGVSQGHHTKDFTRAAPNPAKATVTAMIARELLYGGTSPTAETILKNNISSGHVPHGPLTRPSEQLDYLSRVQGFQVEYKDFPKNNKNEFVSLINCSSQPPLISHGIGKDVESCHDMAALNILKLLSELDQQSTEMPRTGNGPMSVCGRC

Tests used:
Assay in all cases: log2 fold change, soluble protein after heating vs DMSO (PISA); higher = thermal stabilisation; K562 lysate, 10 uM; active = over 0.2 and 3.5 SD of the protein, either way, in both replicates (recomputed)
alvocidib = compound: CN1CC[C@H](c2c(O)cc(O)c3c(=O)cc(-c4ccccc4Cl)oc23)[C@H](O)C1 [alvocidib]
Outline: (§1)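 Quantification was by TMTpro 16plex LC-MS/MS with equalised channel sums, applied to the supernatant after 21,000xg for 90 min. Samples were crude K562 extract at 1 mg/mL protein in PBS pH 7.4 with 1 mM MgCl2, treated with 10 μM compound for 30 min, heated for 3 min across 48°C-58°C, pooled and brought to 0.5% NP-40 at 4°C. Values are log-two fold changes in thermal stability relative to solvent controls, from duplicates.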

Tubastatin A = compound: CN1CCc2c(c3ccccc3n2Cc2ccc(C(=O)NO)cc2)C1 [Tubastatin A]
Outline: as §1

[1] = compound: CNC(=O)C1=CC=CC=C1NC2=NC(=NC=C2Cl)NC3=C(C=C(C=C3)N4CCOCC4)OC
Outline: as §1

defactinib = compound: CNC(=O)c1ccc(Nc2ncc(C(F)(F)F)c(NCc3nccnc3N(C)S(C)(=O)=O)n2)cc1 [defactinib]
Outline: as §1

[2] = compound: CNc1nc(-c2ccc3c(N)n[nH]c3c2)cc(N2C[C@@H](C(=O)NC3CCCCC3)CC[C@H]2C)n1
Outline: as §1

encorafenib = compound: COC(=O)N[C@@H](C)CNc1nccc(-c2cn(C(C)C)nc2-c2cc(Cl)cc(NS(C)(=O)=O)c2F)n1 [encorafenib]
Outline: as §1

[3] = compound: COC(=O)[C@H](CCSC)NC(=O)C1=C(C=C(C=C1)NC[C@H](CS)N)C2=CC=CC=C2
Outline: as §1

alisertib = compound: COc1cc(Nc2ncc3c(n2)-c2ccc(Cl)cc2C(c2c(F)cccc2OC)=NC3)ccc1C(=O)O [alisertib]
Outline: as §1

[4] = compound: COc1cc2nc(-c3cc(F)ccc3O)nc(N[C@@H]3CNC[C@H]3C(C)(C)O)c2cc1OC
Outline: as §1

gefitinib = compound: COc1cc2ncnc(Nc3ccc(F)c(Cl)c3)c2cc1OCCCN1CCOCC1 [gefitinib]
Outline: as §1

Measured: log2 fold change

STARD3NL (UniProt O95772)
inactive: alvocidib -0.063 | Tubastatin A -0.006 | [1] -0.012 | defactinib 0.058 | [2] -0.074 | encorafenib 0.087 | [3] -0.083 | alisertib 0.033 | [4] 0.042 | gefitinib 0.136

STARD3 isoform 3 (UniProt Q14849)
inactive: alvocidib -0.037 | Tubastatin A 0.079 | [1] 0.004 | defactinib -0.019 | [2] 0.068 | encorafenib -0.029 | [3] 0.055 | alisertib -0.007 | [4] -0.059 | gefitinib 0.081

STAT6 (UniProt P42226)
inactive: alvocidib -0.051 | Tubastatin A 0.004 | [1] 0.008 | defactinib -0.032 | [2] 0.139 | encorafenib 0.033 | [3] 0.014 | alisertib -0.033 | [4] -0.014 | gefitinib -0.011

SPHK1 isoform 2 (UniProt Q9NYA1)
inactive: alvocidib 0.023 | Tubastatin A -0.114 | [1] 0.046 | defactinib 0.076 | [2] -0.175 | encorafenib 0.018 | [3] 0.006 | alisertib 0.045 | [4] 0.022 | gefitinib 0.069

STAT5A (UniProt P42229)
inactive: alvocidib 0.002 | Tubastatin A -0.064 | [1] 0.023 | defactinib 0.001 | [2] 0.038 | encorafenib 0 | [3] 0.024 | alisertib 0.006 | [4] 0.021 | gefitinib -0.003

STAMBP (UniProt O95630)
inactive: alvocidib 0.022 | Tubastatin A 0.004 | [1] 0.004 | defactinib 0.001 | [2] 0.002 | encorafenib -0.004 | [3] 0.02 | alisertib -0.017 | [4] -0.015 | gefitinib 0.001

SRP14 (UniProt P37108)
inactive: alvocidib -0.009 | Tubastatin A 0.06 | [1] -0.011 | defactinib -0.057 | [2] 0.024 | encorafenib -0.009 | [3] -0.011 | alisertib 0.038 | [4] -0.002 | gefitinib 0.027

SPART (UniProt Q8N0X7)
inactive: alvocidib -0.038 | Tubastatin A -0.015 | [1] 0.024 | defactinib 0.067 | [2] 0.076 | encorafenib 0.092 | [3] 0.016 | alisertib 0.011 | [4] 0.032 | gefitinib 0.011

SPRED1 (UniProt Q7Z699)
inactive: alvocidib -0.107 | Tubastatin A 0.082 | [1] 0.054 | [2] -0.03 | encorafenib -0.097 | [3] 0.179 | [4] 0.019

SRP54 (UniProt P61011)
inactive: alvocidib -0.023 | Tubastatin A 0.01 | [1] -0.011 | defactinib 0.035 | [2] 0.023 | encorafenib 0.067 | [3] 0.011 | alisertib 0.055 | [4] 0.043 | gefitinib -0.025

ST3GAL2 (UniProt Q16842)
inactive: alvocidib -0.086 | Tubastatin A 0.015 | [1] -0.063 | defactinib 0.081 | [2] 0.063 | encorafenib 0.049 | [3] -0.08 | [4] -0.018

SRA1 (UniProt Q9HD15)
inactive: alvocidib -0.02 | Tubastatin A 0.059 | [1] 0.001 | defactinib -0.002 | [2] 0.005 | encorafenib -0.002 | [3] -0.02 | alisertib 0.005 | [4] -0.002 | gefitinib -0.001

SPC25 (UniProt Q9HBM1)
inactive: alvocidib -0.015 | Tubastatin A 0.009 | [1] 0.024 | defactinib -0.017 | [2] -0.014 | encorafenib 0.034 | [3] 0.014 | alisertib -0.008 | [4] -0.043 | gefitinib -0.011

SPTY2D1 (UniProt Q68D10)
inactive: alvocidib -0.038 | Tubastatin A 0.193 | [1] -0.01 | [2] 0.068 | alisertib 0.025 | gefitinib 0.014

STAT5B (UniProt P51692)
inactive: alvocidib -0.041 | Tubastatin A -0.085 | [1] 0.039 | defactinib 0.035 | [2] 0.048 | encorafenib 0.001 | [3] 0.065 | alisertib 0.023 | [4] -0.003 | gefitinib 0.016

SPECC1 (UniProt Q5M775)
inactive: alvocidib -0.017 | Tubastatin A 0.013 | [1] 0.054 | defactinib 0.084 | [2] 0.042 | encorafenib 0.025 | [3] -0.096 | alisertib -0.022 | [4] -0.006 | gefitinib -0.017

SPCS1, A0A5F9YFS9
inactive: alvocidib 0.045 | Tubastatin A 0.01 | [1] -0.01 | defactinib -0.025 | [2] 0.297 | encorafenib 0.053 | [3] -0.031 | alisertib -0.086 | [4] -0.016 | gefitinib 0.001

SRFBP1 (UniProt Q8NEF9)
inactive: alvocidib -0.071 | Tubastatin A 0.03 | [1] 0.034 | defactinib 0.071 | [2] 0.143 | encorafenib 0.035 | [3] 0.023 | alisertib 0.006 | [4] 0.013 | gefitinib 0.09

SRM (UniProt P19623)
inactive: alvocidib 0.008 | Tubastatin A -0.014 | [1] -0.014 | defactinib -0.03 | [2] -0.03 | encorafenib -0.011 | [3] 0.083 | alisertib -0.03 | [4] 0.016 | gefitinib 0.011

SRGN (UniProt P10124)
active: alvocidib -0.509
inactive: Tubastatin A 0.027 | [1] 0.048 | defactinib 0.175 | [2] 0.065 | encorafenib 0.014 | [3] -0.055 | [4] 0.026

STAG2 isoform 2 (UniProt Q8N3U4)
inactive: alvocidib 0.028 | Tubastatin A 0.001 | [1] 0.034 | defactinib -0.021 | [2] -0.01 | encorafenib 0.019 | [3] 0.007 | alisertib -0.005 | [4] -0.008 | gefitinib 0.004

SPPL2A (UniProt Q8TCT8)
inactive: alvocidib 0.013 | Tubastatin A 0.107 | [1] 0.103 | defactinib -0.054 | encorafenib 0.124 | [3] -0.063 | [4] 0.099

ST3GAL4 isoform 4 (UniProt Q11206)
inactive: alvocidib -0.168 | Tubastatin A 0.206 | [1] -0.065 | defactinib 0.141 | [2] 0.088 | encorafenib -0.015 | [3] 0.245 | alisertib -0.294 | gefitinib -0.205

SRCIN1 (UniProt Q9C0H9)
inactive: alvocidib -0.104 | Tubastatin A 0.078 | [1] 0 | encorafenib 0.003 | [3] 0.083 | alisertib -0.146 | [4] 0.049 | gefitinib -0.062

STAG1 (UniProt Q8WVM7)
inactive: alvocidib -0.118 | Tubastatin A 0.037 | [1] 0.017 | [2] 0.03 | encorafenib 0.039 | [3] 0.025 | alisertib -0.026 | [4] -0.035 | gefitinib 0.085

SPG11 (UniProt Q96JI7)
inactive: alvocidib 0.161 | Tubastatin A -0.129 | [1] -0.058 | defactinib -0.015 | [2] -0.003 | encorafenib 0.049 | [3] 0.088 | alisertib -0.041 | [4] 0.07 | gefitinib -0.024

SRC isoform 2 (UniProt P12931)
inactive: alvocidib -0.035 | Tubastatin A 0.133 | [1] 0.118 | [2] -0.031 | encorafenib -0.171 | [3] 0.399 | [4] 0

SSU72 (UniProt Q9NP77)
inactive: alvocidib -0.127 | Tubastatin A -0.05 | [1] -0.035 | defactinib -0.026 | [2] -0.032 | encorafenib -0.04 | [3] 0.183 | alisertib -0.016 | [4] -0.013 | gefitinib -0.004

SRSF6 (UniProt Q13247)
inactive: alvocidib 0.076 | Tubastatin A 0.022 | [1] -0.026 | defactinib 0.044 | [2] -0.01 | encorafenib -0.001 | [3] -0.016 | alisertib -0.1 | [4] 0.004 | gefitinib -0.026

STAU1 (UniProt O95793)
inactive: alvocidib 0.062 | Tubastatin A -0.06 | [1] 0.051 | defactinib 0.027 | [2] -0.04 | encorafenib 0.078 | [3] -0.009 | alisertib 0.072 | [4] -0.007 | gefitinib 0.012

STAG2 (UniProt Q8N3U4)
inactive: alvocidib -0.007 | Tubastatin A 0.008 | [1] 0.106 | encorafenib -0.141 | [3] -0.01 | [4] -0.006

2 entries picked at random from the list so far, as already listed:
SSU72 (UniProt Q9NP77)
inactive: alvocidib -0.127 | Tubastatin A -0.05 | [1] -0.035 | defactinib -0.026 | [2] -0.032 | encorafenib -0.04 | [3] 0.183 | alisertib -0.016 | [4] -0.013 | gefitinib -0.004

SRSF6 (UniProt Q13247)
inactive: alvocidib 0.076 | Tubastatin A 0.022 | [1] -0.026 | defactinib 0.044 | [2] -0.01 | encorafenib -0.001 | [3] -0.016 | alisertib -0.1 | [4] 0.004 | gefitinib -0.026
